Our source for the binding values is publication PMC5564443.

Protein sequences, listed by entry. Tags and fused reporters are not part of them.
UniProt Q9R190: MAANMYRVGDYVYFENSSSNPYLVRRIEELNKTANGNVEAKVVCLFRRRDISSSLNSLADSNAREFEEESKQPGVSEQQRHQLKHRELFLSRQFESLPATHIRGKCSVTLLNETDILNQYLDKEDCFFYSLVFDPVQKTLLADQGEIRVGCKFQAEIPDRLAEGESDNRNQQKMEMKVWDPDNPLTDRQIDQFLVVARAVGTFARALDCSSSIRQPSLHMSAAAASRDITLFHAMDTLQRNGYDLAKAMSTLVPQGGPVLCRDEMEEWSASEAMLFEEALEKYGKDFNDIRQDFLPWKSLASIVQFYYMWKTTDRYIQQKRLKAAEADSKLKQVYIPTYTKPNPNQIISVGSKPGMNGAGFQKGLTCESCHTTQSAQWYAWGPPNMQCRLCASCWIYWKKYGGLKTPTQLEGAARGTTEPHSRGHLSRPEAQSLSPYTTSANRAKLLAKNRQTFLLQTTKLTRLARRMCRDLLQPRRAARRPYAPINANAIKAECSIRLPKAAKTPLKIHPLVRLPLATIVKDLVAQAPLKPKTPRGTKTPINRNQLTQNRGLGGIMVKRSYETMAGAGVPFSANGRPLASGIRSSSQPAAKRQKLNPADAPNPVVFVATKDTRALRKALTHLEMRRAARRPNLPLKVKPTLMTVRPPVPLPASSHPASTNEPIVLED
UniProt Q924K8: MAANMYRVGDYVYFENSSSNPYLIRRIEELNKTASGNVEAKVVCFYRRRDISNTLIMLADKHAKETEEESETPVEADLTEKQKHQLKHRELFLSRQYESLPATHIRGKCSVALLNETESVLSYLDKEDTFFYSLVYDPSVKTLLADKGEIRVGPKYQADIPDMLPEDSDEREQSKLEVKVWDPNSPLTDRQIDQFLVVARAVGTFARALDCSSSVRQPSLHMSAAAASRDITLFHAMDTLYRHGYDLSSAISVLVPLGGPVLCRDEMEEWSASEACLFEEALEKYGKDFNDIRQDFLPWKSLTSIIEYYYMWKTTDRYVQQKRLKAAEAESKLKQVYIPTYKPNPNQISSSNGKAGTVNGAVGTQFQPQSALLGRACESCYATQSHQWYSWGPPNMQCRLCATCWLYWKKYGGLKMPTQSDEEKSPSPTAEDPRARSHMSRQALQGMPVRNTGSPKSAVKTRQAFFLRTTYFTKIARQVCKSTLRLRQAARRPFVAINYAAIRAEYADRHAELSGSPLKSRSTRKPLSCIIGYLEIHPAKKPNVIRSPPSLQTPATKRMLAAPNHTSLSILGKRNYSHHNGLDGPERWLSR
UniProt P70288: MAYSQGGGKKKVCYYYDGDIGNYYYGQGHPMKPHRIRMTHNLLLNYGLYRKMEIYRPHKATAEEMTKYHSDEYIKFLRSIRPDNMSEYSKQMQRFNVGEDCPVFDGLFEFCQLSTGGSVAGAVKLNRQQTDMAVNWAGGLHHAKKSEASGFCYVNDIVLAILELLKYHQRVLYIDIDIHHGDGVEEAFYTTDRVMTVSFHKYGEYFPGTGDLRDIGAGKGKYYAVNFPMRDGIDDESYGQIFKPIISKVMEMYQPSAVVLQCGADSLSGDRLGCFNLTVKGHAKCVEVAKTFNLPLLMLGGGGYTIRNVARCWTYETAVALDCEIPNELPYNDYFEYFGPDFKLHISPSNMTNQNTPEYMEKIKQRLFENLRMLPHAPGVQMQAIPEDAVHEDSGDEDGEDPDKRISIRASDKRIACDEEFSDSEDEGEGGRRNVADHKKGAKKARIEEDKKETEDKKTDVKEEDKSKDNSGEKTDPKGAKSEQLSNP
UniProt Q8K4B0: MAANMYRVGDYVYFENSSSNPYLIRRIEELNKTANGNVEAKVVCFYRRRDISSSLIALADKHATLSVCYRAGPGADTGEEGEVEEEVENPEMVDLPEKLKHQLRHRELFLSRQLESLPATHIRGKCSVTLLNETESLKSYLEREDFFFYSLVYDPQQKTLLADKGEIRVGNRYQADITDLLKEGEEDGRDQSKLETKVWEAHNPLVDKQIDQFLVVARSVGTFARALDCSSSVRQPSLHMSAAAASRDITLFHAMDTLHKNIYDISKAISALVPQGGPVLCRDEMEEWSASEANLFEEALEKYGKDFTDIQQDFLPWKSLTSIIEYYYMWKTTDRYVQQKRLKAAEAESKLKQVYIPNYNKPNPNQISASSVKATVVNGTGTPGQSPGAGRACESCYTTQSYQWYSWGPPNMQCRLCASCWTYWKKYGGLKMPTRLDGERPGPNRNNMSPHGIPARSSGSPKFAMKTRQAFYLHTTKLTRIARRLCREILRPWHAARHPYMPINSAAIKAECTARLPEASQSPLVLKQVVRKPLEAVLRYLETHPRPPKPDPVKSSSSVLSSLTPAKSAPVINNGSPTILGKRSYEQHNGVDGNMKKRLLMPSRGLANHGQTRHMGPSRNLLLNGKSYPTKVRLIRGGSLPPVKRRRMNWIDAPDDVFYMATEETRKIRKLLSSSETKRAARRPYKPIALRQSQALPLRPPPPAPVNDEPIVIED
UniProt Q8VHR5: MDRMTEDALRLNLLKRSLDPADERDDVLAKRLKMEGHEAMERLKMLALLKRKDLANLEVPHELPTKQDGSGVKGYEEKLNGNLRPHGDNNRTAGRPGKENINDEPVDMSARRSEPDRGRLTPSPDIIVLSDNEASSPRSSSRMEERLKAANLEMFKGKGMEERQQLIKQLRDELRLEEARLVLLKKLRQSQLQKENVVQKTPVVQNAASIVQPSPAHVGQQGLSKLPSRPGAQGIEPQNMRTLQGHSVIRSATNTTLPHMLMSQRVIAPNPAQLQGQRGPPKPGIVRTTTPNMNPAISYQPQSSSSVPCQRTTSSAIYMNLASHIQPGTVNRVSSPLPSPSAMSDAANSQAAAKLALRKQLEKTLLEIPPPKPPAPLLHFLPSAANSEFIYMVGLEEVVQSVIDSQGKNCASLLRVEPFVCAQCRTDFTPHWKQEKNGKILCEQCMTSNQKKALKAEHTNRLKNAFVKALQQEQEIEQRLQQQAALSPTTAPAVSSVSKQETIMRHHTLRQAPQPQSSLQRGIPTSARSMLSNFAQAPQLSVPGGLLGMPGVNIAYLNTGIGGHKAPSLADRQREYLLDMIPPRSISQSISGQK
UniProt Q6PDQ2: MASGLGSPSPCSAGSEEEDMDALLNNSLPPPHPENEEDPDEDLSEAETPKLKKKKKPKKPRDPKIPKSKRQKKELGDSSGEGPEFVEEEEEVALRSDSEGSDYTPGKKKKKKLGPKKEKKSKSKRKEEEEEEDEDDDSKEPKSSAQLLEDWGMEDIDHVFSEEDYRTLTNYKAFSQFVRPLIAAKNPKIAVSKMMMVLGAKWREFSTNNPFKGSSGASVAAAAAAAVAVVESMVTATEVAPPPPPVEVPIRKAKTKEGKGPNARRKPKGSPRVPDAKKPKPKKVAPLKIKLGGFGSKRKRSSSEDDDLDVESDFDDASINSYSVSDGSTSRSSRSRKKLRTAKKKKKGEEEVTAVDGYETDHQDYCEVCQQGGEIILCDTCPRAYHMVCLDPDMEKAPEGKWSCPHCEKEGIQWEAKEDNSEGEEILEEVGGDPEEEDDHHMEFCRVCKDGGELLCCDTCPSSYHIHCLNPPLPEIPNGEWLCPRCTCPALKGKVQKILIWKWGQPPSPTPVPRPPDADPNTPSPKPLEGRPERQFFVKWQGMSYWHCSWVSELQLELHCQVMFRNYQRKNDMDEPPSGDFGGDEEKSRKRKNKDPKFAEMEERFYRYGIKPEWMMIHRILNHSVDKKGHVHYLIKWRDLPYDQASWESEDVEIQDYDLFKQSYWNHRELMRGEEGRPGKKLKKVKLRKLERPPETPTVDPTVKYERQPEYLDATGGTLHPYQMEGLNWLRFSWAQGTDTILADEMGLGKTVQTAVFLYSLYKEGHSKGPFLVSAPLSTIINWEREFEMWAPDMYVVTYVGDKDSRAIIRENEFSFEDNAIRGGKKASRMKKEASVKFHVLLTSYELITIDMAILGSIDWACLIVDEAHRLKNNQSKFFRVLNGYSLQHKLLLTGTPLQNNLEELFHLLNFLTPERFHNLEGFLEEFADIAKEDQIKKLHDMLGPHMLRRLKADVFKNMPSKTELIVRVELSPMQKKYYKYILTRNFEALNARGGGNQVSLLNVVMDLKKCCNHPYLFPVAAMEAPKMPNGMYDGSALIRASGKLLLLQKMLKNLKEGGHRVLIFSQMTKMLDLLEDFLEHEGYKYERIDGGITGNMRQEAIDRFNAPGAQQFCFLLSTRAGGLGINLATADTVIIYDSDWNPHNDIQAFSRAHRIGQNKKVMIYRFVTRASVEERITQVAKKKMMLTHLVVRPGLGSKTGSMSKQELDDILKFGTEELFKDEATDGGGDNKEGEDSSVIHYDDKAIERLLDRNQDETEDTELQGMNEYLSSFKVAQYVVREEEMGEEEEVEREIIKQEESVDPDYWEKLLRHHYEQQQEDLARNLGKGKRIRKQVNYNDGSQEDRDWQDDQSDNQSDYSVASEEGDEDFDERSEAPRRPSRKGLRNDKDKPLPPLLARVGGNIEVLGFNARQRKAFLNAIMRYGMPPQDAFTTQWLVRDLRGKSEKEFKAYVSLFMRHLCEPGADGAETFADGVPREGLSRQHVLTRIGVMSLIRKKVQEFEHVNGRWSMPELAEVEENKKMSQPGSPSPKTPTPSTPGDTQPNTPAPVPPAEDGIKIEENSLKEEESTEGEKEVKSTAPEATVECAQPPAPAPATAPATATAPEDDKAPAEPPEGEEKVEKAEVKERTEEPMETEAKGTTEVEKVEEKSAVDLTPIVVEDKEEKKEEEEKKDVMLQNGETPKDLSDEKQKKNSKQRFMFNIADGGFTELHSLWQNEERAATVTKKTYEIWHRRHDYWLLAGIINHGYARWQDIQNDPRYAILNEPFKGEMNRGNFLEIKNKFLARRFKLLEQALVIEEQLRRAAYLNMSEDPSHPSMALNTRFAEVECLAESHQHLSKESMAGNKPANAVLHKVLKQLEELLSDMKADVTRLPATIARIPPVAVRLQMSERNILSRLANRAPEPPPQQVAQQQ
UniProt O09106: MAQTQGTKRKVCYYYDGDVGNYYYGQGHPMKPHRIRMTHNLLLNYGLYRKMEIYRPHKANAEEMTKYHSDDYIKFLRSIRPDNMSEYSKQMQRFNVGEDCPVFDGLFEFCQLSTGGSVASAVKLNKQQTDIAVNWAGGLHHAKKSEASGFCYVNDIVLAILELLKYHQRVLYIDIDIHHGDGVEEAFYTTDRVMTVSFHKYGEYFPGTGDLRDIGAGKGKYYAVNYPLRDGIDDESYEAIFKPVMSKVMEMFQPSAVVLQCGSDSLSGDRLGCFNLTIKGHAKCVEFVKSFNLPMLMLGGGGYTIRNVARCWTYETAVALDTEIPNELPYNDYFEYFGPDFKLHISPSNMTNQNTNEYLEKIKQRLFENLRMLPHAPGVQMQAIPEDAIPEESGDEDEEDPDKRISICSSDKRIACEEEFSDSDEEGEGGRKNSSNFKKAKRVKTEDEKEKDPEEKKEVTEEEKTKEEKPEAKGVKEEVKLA

B1: Cdk2ap1 (protein, UniProt O35207 1-114)
chain: MSYKPNLTAHMPAAALNAGSVHSPSTSMATSSQYRQLLSDYGPPSLGYTQGTGNSQVPQSKYAELLAIIEELGKEIRPTYAGSKSAMERLKRGIIHARSLVRECLAETERNARS

Results are given in words; binding and its absence hold for the method and conditions named. In cells and extracts the contact can be indirect. These calls come from enrichment with a bait or labelling near it, and not all partners need be listed.

The assay deals with Mta2, FLAG-tagged (mouse (endogenous locus in mouse embryonic stem cells)) (UniProt Q9R190). The assay can be described thus: affinity purification with mass spectrometry; FLAG affinity purification of the tagged bait from mouse embryonic stem cell lysate (M2 anti-FLAG antibody on Protein G magnetic beads, 4 °C, 150 mM NaCl, 0.1% NP-40), competitive elution with 3x FLAG peptide, eluate resolved by blue native PAGE (3-12%), 48 gel slices, LC-MS/MS, protein correlation profiling of migration profiles (ABC-MS).
Consider Mta3 (from UniProt Q924K8 1-591), for which the binding result is reported as “binds”.

Consider Hdac2 (from UniProt P70288 1-488), for which the binding result was “binds”.

Turning to Mta1 (from UniProt Q8K4B0 1-715), the binding result was “binds”.

As for Gatad2b (from UniProt Q8VHR5 1-594), the binding entry was “binds”.

For the molecule Chd4 (from UniProt Q6PDQ2 1-1915), the binding result was “binds”.

Consider Hdac1 (from UniProt O09106 1-482), for which the binding entry is “binds”.

Consider B1, for which the binding entry was “binds”.
